Reference: PubChem BioAssay AID1508588 (Peter MacCallum Cancer Centre, 2020)
Assay: 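Which gene losses make BRAF-mutant melanoma cells more responsive to vemurafenib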 (primary screen). System: human WM266.4 melanoma cells (BRAF V600 mutant). Knock-down reagent: siRNA pool against human genes, 40 nM. Timing: 96 h from transfection to read-out. Conditions: vemurafenib 300 nM (about IC25), added 48 h after transfection, for 48 h; comparison arm got DMSO vehicle only. Read-out: 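Cell gain (DAPI nuclei at end minus before drug, mean of two replicates) and medium lactate by absorbance per cell, both as ratio to non-targeting siRNA, also grouped into fold-change classes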. Scale: cell gain with vemurafenib: higher = more cell gain than with non-targeting siRNA; lactate per cell with vemurafenib: higher = more lactate made per cell. Hit rule: 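a knock-down counts as enhancing when its fold-change classes with vehicle and with vemurafenib, taken together, show a stronger drug effect on cell gain or lactate per cell; exact class pairs not stated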. Meaning of the calls: active = enhances vemurafenib effect; inactive = no enhancement seen.
This is an unselected part of about 18,000 reagents. 790 of all reagents (4.4%) count as active. 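Calls rest on a combination of fold-change classes in drug and vehicle arms, not all shown here.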

| target gene | cell gain with vemurafenib | lactate per cell with vemurafenib | outcome |
| --- | --- | --- | --- |
| PRMT3 (protein arginine methyltransferase 3) | 0.92 | 0.5 | inactive |
| PPY (pancreatic polypeptide) | 0.64 | 0.44 | active |
| UGDH (UDP-glucose 6-dehydrogenase) | 0.55 | 0.41 | inactive |
| BTNL2 (butyrophilin like 2) | 0.3 | 0.79 | inactive |
| SGCG (sarcoglycan gamma) | 0.84 | 0.71 | inactive |
| LYRM7 (LYR motif containing 7) | 0.15 | 1.28 | inactive |
| PARD3 (par-3 family cell polarity regulator) | 0.31 | 0.76 | inactive |
| NOSTRIN (nitric oxide synthase trafficking) | 0.32 | 1.5 | inactive |
| RPE65 (retinoid isomerohydrolase RPE65) | 0.51 | 0.62 | inactive |
| DMP1 (dentin matrix acidic phosphoprotein 1) | 0.82 | 0.63 | inactive |
| NAA30 (N-alpha-acetyltransferase 30, NatC catalytic subunit) | 0.17 | 0.79 | inactive |
| KIF13B (kinesin family member 13B) | 0.86 | 0.58 | inactive |
| PRG4 (proteoglycan 4) | 0.59 | 1.48 | inactive |
| LRIT3 (leucine rich repeat, Ig-like and transmembrane domains 3) | 0.81 | 0.96 | inactive |
| GTF2H5 (general transcription factor IIH subunit 5) | 0.23 | 1.3 | inactive |
| DEFB107B (defensin beta 107B) | 0.89 | 0.66 | inactive |
| SEC16B (SEC16 homolog B, endoplasmic reticulum export factor) | 1.11 | 1.02 | inactive |
| MYH3 (myosin heavy chain 3) | 0.73 | 0.47 | inactive |
| ANKRD54 (ankyrin repeat domain 54) | 0.64 | 1.31 | inactive |
| CD37 (CD37 molecule) | 0.53 | 1.07 | inactive |
| ASNS (asparagine synthetase (glutamine-hydrolyzing)) | 0.77 | 0.8 | inactive |
| IFNK (interferon kappa) | 0.01 | 0.96 | inactive |
| NCBP3 (nuclear cap binding subunit 3) | 0.87 | 1.4 | inactive |
| CRYAA (crystallin alpha A) | 0.63 | 1.18 | inactive |
| LIN28B (lin-28 RNA binding posttranscriptional regulator B) | 0.84 | 1.09 | inactive |
| FANCF (FA complementation group F) | 0.76 | 0.83 | inactive |
| SF3A3 (splicing factor 3a subunit 3) | 0.23 | 1.31 | inactive |
| MPV17L (MPV17 mitochondrial inner membrane protein like) | 0.35 | 1.67 | inactive |
| MYL6 (myosin light chain 6) | 0.86 | 0.74 | inactive |
| LRRC37A3 (leucine rich repeat containing 37 member A3) | 0.8 | 0.86 | inactive |
| SAMM50 (SAMM50 sorting and assembly machinery component) | 0.48 | 0.53 | inactive |
| KSR2 (kinase suppressor of ras 2) | 0.59 | 1.27 | inactive |
| ECHDC2 (enoyl-CoA hydratase domain containing 2) | 1.05 | 0.7 | inactive |
| WWP1 (WW domain containing E3 ubiquitin protein ligase 1) | 0.83 | 0.81 | inactive |
| KIFC1 (kinesin family member C1) | 0.21 | 1.05 | inactive |
| HS3ST6 (heparan sulfate-glucosamine 3-sulfotransferase 6) | 0.7 | 1.49 | inactive |
| PC (pyruvate carboxylase) | 0.44 | 0.96 | inactive |
| RP1L1 (RP1 like 1) | 0.79 | 0.08 | inactive |
| SLC27A5 | 0.95 | 0.92 | inactive |
| SPC24 (SPC24 component of NDC80 kinetochore complex) | 0.81 | 0.82 | inactive |
| EMP1 (epithelial membrane protein 1) | 0.7 | 1.02 | inactive |
| B4GALNT3 (beta-1,4-N-acetyl-galactosaminyltransferase 3) | 0.67 | 0.42 | inactive |
| DHRS4L1 (dehydrogenase/reductase 4 like 1 (pseudogene)) | 0.98 | 0.94 | inactive |
| SLC30A10 | 0.43 | 1.5 | inactive |
| WTIP (WT1 interacting protein) | 0.72 | 0.52 | inactive |
| C5AR1 (complement C5a receptor 1) | 0.31 | 1.82 | inactive |
| MPST (mercaptopyruvate sulfurtransferase) | 0.05 | 1.72 | inactive |
| TMA16 (translation machinery associated 16 homolog) | 0.55 | 0.52 | inactive |
| PIGG | 0.79 | 0.8 | inactive |
| RAE1 (ribonucleic acid export 1) | 0.68 | 1.14 | inactive |
| MTRR | 0.49 | 0.64 | inactive |
| RPL10 (ribosomal protein L10) | -0.01 | 2.41 | inactive |
| ZNF670 (zinc finger protein 670) | 0.91 | 1.04 | inactive |
| NLRC5 (NLR family CARD domain containing 5) | 0.54 | 1.29 | inactive |
| ZNF420 (zinc finger protein 420) | 0.53 | 0.86 | inactive |
| ANP32CP (acidic nuclear phosphoprotein 32 family member C, pseudogene) | 0.65 | 0.32 | inactive |
| NUTF2 (nuclear transport factor 2) | -0.04 | 3.33 | inactive |

A few values from the list.
For “cell gain with vemurafenib”, MTRR has 0.49
Under “cell gain with vemurafenib”, KSR2 (kinase suppressor of ras 2) reads 0.59
Entry for ANP32CP (acidic nuclear phosphoprotein 32 family member C, pseudogene) under “cell gain with vemurafenib”: 0.65
WWP1 (WW domain containing E3 ubiquitin protein ligase 1), cell gain with vemurafenib → 0.83
Value for LRRC37A3 (leucine rich repeat containing 37 member A3) under “outcome”: inactive
